Binding data for one molecule are collected here from PMC7826263.

Chains of the proteins cited; added tags and fusions are not shown.
UniProt Q99708: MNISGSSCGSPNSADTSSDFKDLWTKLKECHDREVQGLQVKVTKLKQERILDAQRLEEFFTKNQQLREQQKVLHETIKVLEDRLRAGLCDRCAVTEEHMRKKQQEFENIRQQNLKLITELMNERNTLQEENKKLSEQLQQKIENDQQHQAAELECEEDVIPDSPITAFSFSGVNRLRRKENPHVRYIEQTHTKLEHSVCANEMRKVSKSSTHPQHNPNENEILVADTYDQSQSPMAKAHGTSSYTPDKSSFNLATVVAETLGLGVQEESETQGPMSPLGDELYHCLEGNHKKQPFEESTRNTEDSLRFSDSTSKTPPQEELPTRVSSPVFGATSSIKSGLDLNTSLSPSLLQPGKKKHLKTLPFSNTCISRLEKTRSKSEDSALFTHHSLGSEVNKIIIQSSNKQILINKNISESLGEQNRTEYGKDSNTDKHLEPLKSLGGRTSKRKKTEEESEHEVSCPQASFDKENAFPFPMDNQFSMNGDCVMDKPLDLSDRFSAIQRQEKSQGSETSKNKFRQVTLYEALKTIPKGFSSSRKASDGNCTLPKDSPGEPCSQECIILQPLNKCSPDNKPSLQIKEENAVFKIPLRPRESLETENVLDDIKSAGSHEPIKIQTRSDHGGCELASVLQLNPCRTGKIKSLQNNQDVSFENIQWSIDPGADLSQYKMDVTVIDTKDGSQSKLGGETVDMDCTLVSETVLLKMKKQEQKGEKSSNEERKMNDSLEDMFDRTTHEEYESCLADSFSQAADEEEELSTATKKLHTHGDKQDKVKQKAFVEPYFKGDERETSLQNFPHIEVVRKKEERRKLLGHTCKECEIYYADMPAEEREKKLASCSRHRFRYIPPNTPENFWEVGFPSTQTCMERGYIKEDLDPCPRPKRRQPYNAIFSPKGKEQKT

In this assay the target is GFP-CtIP-WT (siRNA-resistant N-terminally GFP-tagged CtIP, wildtype) (human) (UniProt Q99708). The assay is described as follows: co-IP; GFP-Trap agarose IP of GFP-CtIP constructs from cell lysate (RIPA buffer with NEM, diluted to 150 mM NaCl; washes with 500 mM NaCl), immunoblot; some experiments after siRNA depletion of endogenous CtIP, S phase synchronisation or HU treatment for 4 h.

These are yes or no findings as the source states them, for the method shown. In cells and extracts the contact can be indirect. Some entries that bind do so weakly or less than the wild type.

B1: PIAS4 (E3 SUMO ligase), endogenous (protein, UniProt Q8N2W9 1-510)
chain: MAAELVEAKNMVMSFRVSDLQMLLGFVGRSKSGLKHELVTRALQLVQFDCSPELFKKIKELYETRYAKKNSEPAPQPHRPLDPLTMHSTYDRAGAVPRTPLAGPNIDYPVLYGKYLNGLGRLPAKTLKPEVRLVKLPFFNMLDELLKPTELVPQNNEKLQESPCIFALTPRQVELIRNSRELQPGVKAVQVVLRICYSDTSCPQEDQYPPNIAVKVNHSYCSVPGYYPSNKPGVEPKRPCRPINLTHLMYLSSATNRITVTWGNYGKSYSVALYLVRQLTSSELLQRLKTIGVKHPELCKALVKEKLRLDPDSEIATTGVRVSLICPLVKMRLSVPCRAETCAHLQCFDAVFYLQMNEKKPTWMCPVCDKPAPYDQLIIDGLLSKILSECEDADEIEYLVDGSWCPIRAEKERSCSPQGAILVLGPSDANGLLPAPSVNGSGALGSTGGGGPVGSMENGKPGADVVDLTLDSSSSSEDEEEEEEEEEDEDEEGPRPKRRCPFQKGLVPAC
As for B1, the binding result is “binds”.
